The nature of the assay: IkB Signaling. Conditions: ABC-DLBCL IkBa-CBG/CBR dual luciferase ratio (green luciferase fused to IkBa over red control in OCI-Ly3 lymphoma cells), 4 h. In outline: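 In this assay, an IκBα–CBG68 fusion accumulates when IKK-driven degradation is blocked; native CBR normalizes for cell number. OCI-Ly3 cells were treated 4 h with compound and doxycycline, then green and red light read after Chroma-Glo addition.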
[1] abbreviates: measured here: control luc red channel unless noted.

What is called AC50 is the concentration at which the activity in the assay is half-maximal.

The list shows a part of the results. Further columns of the screen follow, without active or inactive calls. The list favours compounds with an active or inconclusive main result. Words in brackets tell the shape of the fitted curve; partial curves, single points and poor fits give uncertain potencies.

Turning to `COc1ccc(F)cc1S(=O)(=O)Nc1ccc2c(c1)CCCN2C(=O)c1cccs1`, the AC50 under setting [1] was 39.8 µM [falling, single point]. With `COC(=O)c1sccc1S(=O)(=O)N(CC(=O)NCc1ccc(C)cc1)c1ccc(C)c(C)c1`, under setting [1], the half-maximal activity concentration (AC50) was 3.98 µM [falling, partial curve]. `Cc1cc(NC(=O)c2cc(Cl)ccc2Cl)ccc1-c1cc2ccccc2oc1=O`: the half-maximal activity concentration (AC50) under setting [1] is 3.16 µM [falling, single point]. Turning to `CC(=O)c1c(C)oc2c1cc(NS(=O)(=O)c1c(C)cc(C)cc1C)c1ccccc12`, the concentration at half-maximal activity (AC50) under setting [1] is 12.6 µM [falling, partial curve]. `Cc1ccc(C)c(N2CCN(C(=O)CCCCn3c(=O)[nH]c4ccccc4c3=O)CC2)c1`: the half-maximal activity concentration (AC50) under setting [1] is 12.6 µM [falling, partial curve]. Still for that read-out and setting: in the case of `CCCNC(=O)Cn1c(=O)c2cccn2c2cccnc21` it was 0.0398 µM [rising, full curve, poor fit]; in that of `COc1ccc(C2=NS(=O)(=O)N(C)C(C(=O)N(C)Cc3ccccc3)=C2)cc1OC`, 0.0398 µM [falling, full curve]; in that of `Cc1ccccc1OCc1nc2ccccc2n1Cc1ccccc1Cl`, 31.6 µM [falling, partial curve]. On the same count and under the same terms, for `CC(=O)c1ccc(NC(=O)CSc2cn(CC(=O)N(C(C)C)C(C)C)c3ccccc23)cc1` the value was 15.8 µM [falling, single point]; for `CCS(=O)(=O)N1CCc2cc(C(=O)Nc3cccc(C(C)=O)c3)ccc21`, 25.1 µM [falling, partial curve]. `CCCCN(CC)C(=O)CCNS(=O)(=O)c1ccc2c(c1)c(=O)n(C)c(=O)n2C`: the AC50 under setting [1] is 39.8 µM [falling, single point]. On the same count and under the same terms, in the case of `CCCOc1cccc(C2c3c(-c4ccccc4O)n[nH]c3C(=O)N2Cc2ccco2)c1` (centres undefined) it was 25.1 µM [falling, partial curve].

As for `CC(C)CCn1c(Oc2ccccc2F)nc2c1c(=O)n(C)c(=O)n2C`, under setting [1], the AC50 is 5.01 µM [falling, partial curve]. Take `CCCCN1C(=O)C(O)(CC(=O)c2ccco2)c2cc(Br)ccc21` (centres undefined): under setting [1], the AC50 was 3.98 µM [rising, full curve, poor fit] [measured here: IkB-luc green channel].

With `COc1ccc(C(CNC(=O)c2oc3cc(C)c(Cl)cc3c2C)N2CCCCC2)cc1` (centres undefined), the AC50 under setting [1] was 1 µM [falling, partial curve]. Same read-out and setting: for `O=C(Cn1nc(-c2ccc(Cl)cc2)c2ccccc2c1=O)Nc1cccc(C(F)(F)F)c1` the value was 6.31 µM [falling, partial curve].

Regarding `Cn1c(=O)c(=O)n(C)c2cc(C(=O)NCc3ccccc3Cl)ccc21`, the AC50 under setting [1] is 0.398 µM [rising, single point]. In the case of `COC(=O)c1scc(-c2ccc(C)cc2)c1S(=O)(=O)N1CCN(c2ccc(C)cc2C)CC1`, the half-maximal activity concentration (AC50) under setting [1] was 7.94 µM [falling, partial curve]. On to `COc1cccc(Nc2nc3ccccc3c3nncn23)c1`, for which the AC50 under setting [1] was 39.8 µM [falling, single point]. On the same count and under the same terms, in the case of `Cn1c(SCc2cc(=O)c3cc(Cl)ccc3[nH]2)nnc1-c1ccccc1` it was 25.1 µM [falling, partial curve]. For `CCc1cc(=O)oc2c(C)c3c(cc12)CN(CCc1ccccc1OC)CO3`, under setting [1], the AC50 was 20 µM [falling, partial curve]. On to `COCCCNC(=O)c1sc2nc(C)c(C(=O)Nc3ccc(C)cc3C)c(-c3ccccc3Cl)c2c1N`, for which the concentration at half-maximal activity (AC50) under setting [1] was 25.1 µM [falling, partial curve]. As to `CCc1ccc2oc(-c3ccc(NC(=O)c4cc5ccccc5o4)cc3)nc2c1`, under setting [1], the AC50 was 0.794 µM [falling, full curve]. On the same count and under the same terms, for `COc1ccc(C(=O)NCc2ccc3c(c2)CCN3C(=O)c2ccccc2)cc1` the value was 25.1 µM [falling, single point]; for `COc1ccc(NS(=O)(=O)c2ccc(-c3cnc(C4CC4)o3)cc2)cc1Cl`, 39.8 µM [falling, partial curve]; for `COc1ccccc1-c1nnc(SCC(=O)N2CCOCC2)o1`, 12.6 µM [falling, partial curve]. For `c1ccc(-n2nnc3c(N4CCOCC4)ncnc32)cc1`, the AC50 under setting [1] is 12.6 µM [falling, partial curve]. As to `Cc1ccc(Cl)cc1N1CCN(C(=O)c2ccc(CS(=O)c3ccccc3)o2)CC1` (centres undefined), the half-maximal activity concentration (AC50) under setting [1] is 15.8 µM [falling, partial curve].

Take `Cc1cc(C)cc(Nc2cc(C(=O)NCCCN(C)C3CCCCC3)c3ccccc3n2)c1`: under setting [1], the AC50 was 12.6 µM [falling, partial curve].

`COc1ccc(OC)c(CCNC(=O)CCn2c(=O)c3cccn3c3ccc(F)cc32)c1`: the AC50 under setting [1] is 15.8 µM [falling, single point]. In the case of `CCCn1nnc(NC(=O)COc2ccc(C3CCCCC3)cc2)n1`, the AC50 under setting [1] is 10 µM [falling, partial curve].

Regarding `CC(C)c1ccc(NC(=O)CSC2=Nc3ccccc3C3=NC(CCC(=O)NCc4ccco4)C(=O)N23)cc1` (centres undefined), under setting [1], the concentration at half-maximal activity (AC50) was 20 µM [falling, partial curve]. As to `CN(C)c1ccc(/C=c2\sc3n(c2=O)CCCN=3)cc1`, under setting [1], the AC50 was 2.51 µM [falling, full curve]. Same read-out and setting: in the case of `CCC(C)c1c(O)nc(SCC(=O)c2ccccc2)[nH]c1=O` (centres undefined) it was 10 µM [falling, partial curve]; in that of `O=C(Nc1nc2c(s1)C(=O)CCC2)c1ccccc1`, 2 µM [falling, full curve]; in that of `Cc1ccc(CN2CCCN(Cc3c(C)cc(C)cc3C)S2(=O)=O)cc1`, 10 µM [falling, partial curve].

Turning to `CCCSC1=NC2(CCN(C(=O)NC3CCCCC3)CC2)N=C1c1ccc(Cl)cc1`, under setting [1], the AC50 was 0.0251 µM [falling, full curve, poor fit]. Still for that read-out and setting: in the case of `CC(C)(C)C(=O)OCc1cc(=O)n2nc(C3CC3)sc2n1` it was 1.26 µM [rising, full curve]. Take `COc1ccc(-c2nnn(CC(=O)c3ccc4c(c3)OCCO4)n2)cc1OC`: under setting [1], the AC50 was 39.8 µM [falling, single point]. Consider `CCCN(CCC)c1nn2c(=O)c(C(=O)NCc3cc(Br)ccc3OC)cnc2s1`, for which the concentration at half-maximal activity (AC50) under setting [1] was 20 µM [falling, partial curve]. The same measure, in the same setting: in the case of `CCOC(=O)c1cc(-c2ccccc2)n(CC(=O)Nc2ccc(CC)cc2)c1C` it was 2 µM [rising, partial curve].

With `O=C(C1CCN(S(=O)(=O)c2cccc3nsnc23)CC1)N1CCCc2ccccc21`, under setting [1], the AC50 is 15.8 µM [falling, partial curve]. Take `Cc1ccc(C)c(NC(=O)CSc2nc3c([nH]c4ccccc43)c(=O)n2-c2ccc(F)cc2)c1`: the AC50 under setting [1] was 0.00631 µM [falling, full curve].

On to `Cc1ccc2cc(CN(Cc3ccco3)C(=O)NCc3ccccc3)c(=O)[nH]c2c1C`, for which the concentration at half-maximal activity (AC50) under setting [1] is 31.6 µM [falling, partial curve]. Consider `COc1ccc(CC(=O)NCC(c2ccc(Cl)cc2)N2CCOCC2)cc1` (centres undefined), for which the concentration at half-maximal activity (AC50) under setting [1] was 39.8 µM [falling, single point].

For the compound `O=C(c1c(O)c2ccccc2oc1=O)C1CCC1`, under setting [1], the half-maximal activity concentration (AC50) is 20 µM [falling, partial curve].

As to `Cc1ccc(Cc2cn3cc(-c4ccccc4)nc3s2)cc1`, the AC50 under setting [1] was 15.8 µM [falling, single point].

Turning to `COc1ccc(NS(=O)(=O)c2ccc(Br)s2)cc1OC`, the AC50 under setting [1] was 10 µM [falling, partial curve].

For `CCc1ccc(NC(=O)C2CCCN(S(=O)(=O)c3ccc(F)cc3)C2)cc1` (centres undefined), under setting [1], the AC50 is 10 µM [falling, partial curve]. Regarding `CC(=O)N1CCCc2cc(S(=O)(=O)N3CCC(C(=O)NCc4ccccc4)CC3)ccc21`, under setting [1], the AC50 is 1 µM [rising, full curve, poor fit]. For `CCN(Cc1ccccc1)C(=O)Cn1c(=O)n(-c2ccc(Cl)cc2)c(=O)c2c(C)c(C)sc21`, the half-maximal activity concentration (AC50) under setting [1] was 3.98 µM [falling, full curve]. Consider `CCc1ccc(-n2nnc(-c3nc(-c4ccc(C)cc4)no3)c2N)cc1`, for which the AC50 under setting [1] was 7.94 µM [rising, partial curve, poor fit]. Turning to `O=C(Nc1sc2c(c1C(=O)NCc1ccccc1)CCCC2)c1cc(=O)c2ccccc2o1`, the half-maximal activity concentration (AC50) under setting [1] is 31.6 µM [falling, single point]. Take `CCOc1ccccc1C(=O)NCC(c1cccs1)S(=O)(=O)c1ccc(F)c(C)c1` (centres undefined): the concentration at half-maximal activity (AC50) under setting [1] is 20 µM [falling, single point]. `O=C1Nc2ccc(I)cc2/C1=C/c1cc(Br)c(O)c(Br)c1`: the AC50 under setting [1] is 12.6 µM [falling, partial curve].

For `Cc1ccc(C)c(N2CCN(C(=O)c3ccc4c(=O)n(CCc5ccccc5)c(=O)[nH]c4c3)CC2)c1`, the half-maximal activity concentration (AC50) under setting [1] is 5.01 µM [falling, partial curve, poor fit]. Turning to `O=C(Nc1cc(-c2ccc(Cl)cc2)no1)c1ccc(F)cc1`, the half-maximal activity concentration (AC50) under setting [1] was 6.31 µM [rising, partial curve]. Turning to `COc1ccc(C(=O)C(CN2CCOCC2)c2ccccc2)cc1F` (centres undefined), the half-maximal activity concentration (AC50) is 31.6 µM [rising, single point] (measured here: IkB-luc green channel) and 25.1 µM [falling, partial curve] (measured here: control luc red channel).

`CCOC(=O)c1[nH]c2c(c1Cc1ccccc1OC)C(=O)CC(c1ccccc1)C2` (centres undefined): the AC50 under setting [1] was 31.6 µM [falling, partial curve].

On to `CCCCn1c(=O)c2oc3ccccc3c2n(Cc2ccccc2C)c1=O`, for which the AC50 under setting [1] is 5.01 µM [falling, partial curve]. `O=C(COc1ccc(F)cc1)Nc1ccccc1C(=O)OCc1cc(=O)n2ccsc2n1`: the AC50 under setting [1] is 20 µM [falling, single point]. In the case of `Cc1nc2ccccc2c2oc(C(=O)NCC3COc4ccccc4O3)cc12` (centres undefined), the AC50 under setting [1] was 2.51 µM [falling, full curve].

`Cc1nc(-c2ccccc2)sc1CCNC(=O)C(=O)Nc1ccc(F)c(Cl)c1`: under setting [1], the concentration at half-maximal activity (AC50) was 0.794 µM [rising, full curve].

These data come from PubChem BioAssay AID445 (National Center for Advancing Translational Sciences (NCATS), 2006).
